Results published in the supplement of paper PMC10849652.
The other results are listed elsewhere or left out. Residues, ends and D or L forms follow the SMILES beside them. *: point of attachment. Cbz = O=C(OCc1ccccc1)*

The chains behind the UniProt entries cited, without tags or fusion partners. Where a name states a change or a piece, a line headed by the entry shows the natural chain unless it says otherwise.
UniProt Q9H074: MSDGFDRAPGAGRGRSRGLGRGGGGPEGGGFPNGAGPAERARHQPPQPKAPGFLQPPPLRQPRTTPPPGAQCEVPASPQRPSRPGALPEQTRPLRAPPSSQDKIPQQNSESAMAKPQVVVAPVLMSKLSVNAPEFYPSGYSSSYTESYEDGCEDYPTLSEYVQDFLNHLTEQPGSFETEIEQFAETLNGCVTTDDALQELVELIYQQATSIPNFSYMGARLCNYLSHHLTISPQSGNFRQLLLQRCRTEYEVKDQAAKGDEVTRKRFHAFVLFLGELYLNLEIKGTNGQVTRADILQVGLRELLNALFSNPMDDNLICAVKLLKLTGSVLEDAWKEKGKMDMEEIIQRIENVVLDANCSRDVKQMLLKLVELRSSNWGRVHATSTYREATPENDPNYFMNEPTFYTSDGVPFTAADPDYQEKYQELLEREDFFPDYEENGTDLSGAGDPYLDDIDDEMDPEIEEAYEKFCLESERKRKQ
UniProt P40425: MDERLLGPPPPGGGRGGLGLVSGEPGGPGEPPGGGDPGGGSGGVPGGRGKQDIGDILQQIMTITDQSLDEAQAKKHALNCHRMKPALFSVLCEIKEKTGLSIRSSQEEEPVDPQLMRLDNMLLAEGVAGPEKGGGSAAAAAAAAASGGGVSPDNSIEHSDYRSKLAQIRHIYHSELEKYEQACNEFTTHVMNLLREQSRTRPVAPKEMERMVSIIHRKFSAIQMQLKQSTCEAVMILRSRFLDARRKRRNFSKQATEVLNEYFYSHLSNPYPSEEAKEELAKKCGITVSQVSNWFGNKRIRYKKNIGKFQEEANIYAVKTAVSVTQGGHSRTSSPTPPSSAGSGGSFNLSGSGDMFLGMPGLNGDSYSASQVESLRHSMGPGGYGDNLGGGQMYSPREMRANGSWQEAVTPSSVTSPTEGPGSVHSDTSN
UniProt Q86TB9: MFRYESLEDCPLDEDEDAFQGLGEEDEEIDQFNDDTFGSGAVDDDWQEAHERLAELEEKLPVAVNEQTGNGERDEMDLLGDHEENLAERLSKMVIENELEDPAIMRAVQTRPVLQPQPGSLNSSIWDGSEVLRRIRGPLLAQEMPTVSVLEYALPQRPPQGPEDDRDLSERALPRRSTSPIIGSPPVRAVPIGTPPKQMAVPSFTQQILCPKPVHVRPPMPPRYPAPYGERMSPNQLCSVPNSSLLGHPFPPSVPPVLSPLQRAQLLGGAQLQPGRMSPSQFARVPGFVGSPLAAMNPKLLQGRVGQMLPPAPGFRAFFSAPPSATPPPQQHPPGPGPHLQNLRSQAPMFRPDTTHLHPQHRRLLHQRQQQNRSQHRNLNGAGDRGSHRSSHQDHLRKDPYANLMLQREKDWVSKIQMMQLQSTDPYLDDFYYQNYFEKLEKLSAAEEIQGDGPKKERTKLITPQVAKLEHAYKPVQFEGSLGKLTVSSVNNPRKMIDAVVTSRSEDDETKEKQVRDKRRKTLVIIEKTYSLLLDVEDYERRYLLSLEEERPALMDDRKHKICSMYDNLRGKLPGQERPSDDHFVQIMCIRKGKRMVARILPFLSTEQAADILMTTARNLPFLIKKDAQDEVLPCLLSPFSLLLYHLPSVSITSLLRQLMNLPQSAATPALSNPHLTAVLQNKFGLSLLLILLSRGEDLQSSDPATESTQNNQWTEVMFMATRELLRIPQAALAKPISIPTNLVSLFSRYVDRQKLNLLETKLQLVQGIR
UniProt Q9H4Z3: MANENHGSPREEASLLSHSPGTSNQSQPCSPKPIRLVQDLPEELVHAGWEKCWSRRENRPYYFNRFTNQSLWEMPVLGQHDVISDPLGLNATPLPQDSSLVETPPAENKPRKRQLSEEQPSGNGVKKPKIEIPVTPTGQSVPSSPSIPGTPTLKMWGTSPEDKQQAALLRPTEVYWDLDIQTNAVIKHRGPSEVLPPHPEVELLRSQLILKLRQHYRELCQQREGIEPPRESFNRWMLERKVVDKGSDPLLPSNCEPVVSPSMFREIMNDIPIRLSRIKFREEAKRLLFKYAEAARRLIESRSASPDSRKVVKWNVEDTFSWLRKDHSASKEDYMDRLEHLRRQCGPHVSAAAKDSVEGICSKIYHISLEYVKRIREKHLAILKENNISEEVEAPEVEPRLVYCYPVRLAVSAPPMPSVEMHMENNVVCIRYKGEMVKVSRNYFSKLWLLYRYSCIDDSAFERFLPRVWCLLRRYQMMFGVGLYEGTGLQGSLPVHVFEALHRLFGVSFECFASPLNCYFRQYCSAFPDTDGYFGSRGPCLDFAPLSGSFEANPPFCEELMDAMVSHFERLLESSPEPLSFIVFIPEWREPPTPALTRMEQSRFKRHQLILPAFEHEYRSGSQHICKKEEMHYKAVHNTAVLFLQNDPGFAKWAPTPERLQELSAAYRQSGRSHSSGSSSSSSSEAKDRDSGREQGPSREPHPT
UniProt O00623: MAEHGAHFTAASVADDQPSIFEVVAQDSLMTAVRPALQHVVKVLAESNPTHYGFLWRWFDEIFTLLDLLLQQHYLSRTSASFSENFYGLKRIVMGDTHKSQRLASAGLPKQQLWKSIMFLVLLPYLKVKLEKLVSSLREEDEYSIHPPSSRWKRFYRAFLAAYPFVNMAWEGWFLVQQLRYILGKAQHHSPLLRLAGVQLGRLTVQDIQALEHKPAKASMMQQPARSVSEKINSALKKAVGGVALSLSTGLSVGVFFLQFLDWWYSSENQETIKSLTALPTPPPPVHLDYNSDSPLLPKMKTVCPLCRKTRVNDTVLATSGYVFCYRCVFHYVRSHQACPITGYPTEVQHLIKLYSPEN
UniProt O75340: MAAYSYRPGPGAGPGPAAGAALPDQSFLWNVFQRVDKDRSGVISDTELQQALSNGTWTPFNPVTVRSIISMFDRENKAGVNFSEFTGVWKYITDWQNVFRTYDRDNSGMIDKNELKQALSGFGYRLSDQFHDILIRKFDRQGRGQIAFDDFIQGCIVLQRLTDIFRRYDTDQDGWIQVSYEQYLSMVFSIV
UniProt O95453: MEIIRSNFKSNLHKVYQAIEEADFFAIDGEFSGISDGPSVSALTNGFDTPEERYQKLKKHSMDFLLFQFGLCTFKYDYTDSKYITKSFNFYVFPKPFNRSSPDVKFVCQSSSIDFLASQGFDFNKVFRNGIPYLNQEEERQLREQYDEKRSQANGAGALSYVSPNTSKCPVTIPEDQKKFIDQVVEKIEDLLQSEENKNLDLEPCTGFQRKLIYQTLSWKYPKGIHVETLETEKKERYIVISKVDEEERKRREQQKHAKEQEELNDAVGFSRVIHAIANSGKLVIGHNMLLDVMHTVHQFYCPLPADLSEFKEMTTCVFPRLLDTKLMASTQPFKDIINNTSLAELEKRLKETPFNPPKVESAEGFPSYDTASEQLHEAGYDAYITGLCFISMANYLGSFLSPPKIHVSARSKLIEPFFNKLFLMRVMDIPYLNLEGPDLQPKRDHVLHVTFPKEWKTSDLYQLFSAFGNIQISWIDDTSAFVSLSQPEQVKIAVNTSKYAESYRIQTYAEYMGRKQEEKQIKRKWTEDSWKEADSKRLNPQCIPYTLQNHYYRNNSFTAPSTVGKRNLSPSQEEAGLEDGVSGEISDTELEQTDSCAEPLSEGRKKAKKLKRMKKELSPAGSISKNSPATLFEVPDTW
UniProt Q8NEN9: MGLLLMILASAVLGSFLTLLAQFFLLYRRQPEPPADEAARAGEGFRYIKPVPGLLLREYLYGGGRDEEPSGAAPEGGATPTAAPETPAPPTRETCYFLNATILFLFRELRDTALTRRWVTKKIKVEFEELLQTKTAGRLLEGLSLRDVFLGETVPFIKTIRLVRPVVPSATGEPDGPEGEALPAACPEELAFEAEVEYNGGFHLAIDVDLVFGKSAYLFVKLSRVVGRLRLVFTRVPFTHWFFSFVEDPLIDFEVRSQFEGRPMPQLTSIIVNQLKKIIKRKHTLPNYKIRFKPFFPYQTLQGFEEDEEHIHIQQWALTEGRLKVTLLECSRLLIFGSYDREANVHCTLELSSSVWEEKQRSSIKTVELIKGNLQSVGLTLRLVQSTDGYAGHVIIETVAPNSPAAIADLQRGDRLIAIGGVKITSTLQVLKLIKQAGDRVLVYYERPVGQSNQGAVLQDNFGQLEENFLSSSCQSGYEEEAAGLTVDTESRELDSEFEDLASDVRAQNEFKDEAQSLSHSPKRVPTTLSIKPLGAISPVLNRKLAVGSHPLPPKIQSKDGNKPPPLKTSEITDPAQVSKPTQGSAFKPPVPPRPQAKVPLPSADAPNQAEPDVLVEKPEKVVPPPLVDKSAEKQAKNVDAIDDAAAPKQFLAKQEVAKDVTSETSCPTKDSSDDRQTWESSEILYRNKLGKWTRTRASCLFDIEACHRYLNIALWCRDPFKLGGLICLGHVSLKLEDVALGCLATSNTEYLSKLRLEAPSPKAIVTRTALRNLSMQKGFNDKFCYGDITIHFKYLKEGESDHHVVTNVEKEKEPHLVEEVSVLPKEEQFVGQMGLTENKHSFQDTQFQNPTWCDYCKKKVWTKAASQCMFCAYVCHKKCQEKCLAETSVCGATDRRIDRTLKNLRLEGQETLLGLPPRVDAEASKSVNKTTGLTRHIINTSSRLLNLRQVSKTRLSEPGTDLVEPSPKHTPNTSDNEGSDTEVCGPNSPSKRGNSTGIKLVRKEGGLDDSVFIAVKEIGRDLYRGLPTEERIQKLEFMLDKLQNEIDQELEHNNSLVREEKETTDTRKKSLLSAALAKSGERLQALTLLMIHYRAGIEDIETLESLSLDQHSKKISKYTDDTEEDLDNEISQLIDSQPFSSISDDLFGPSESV
UniProt Q15366, whole entry, looked up: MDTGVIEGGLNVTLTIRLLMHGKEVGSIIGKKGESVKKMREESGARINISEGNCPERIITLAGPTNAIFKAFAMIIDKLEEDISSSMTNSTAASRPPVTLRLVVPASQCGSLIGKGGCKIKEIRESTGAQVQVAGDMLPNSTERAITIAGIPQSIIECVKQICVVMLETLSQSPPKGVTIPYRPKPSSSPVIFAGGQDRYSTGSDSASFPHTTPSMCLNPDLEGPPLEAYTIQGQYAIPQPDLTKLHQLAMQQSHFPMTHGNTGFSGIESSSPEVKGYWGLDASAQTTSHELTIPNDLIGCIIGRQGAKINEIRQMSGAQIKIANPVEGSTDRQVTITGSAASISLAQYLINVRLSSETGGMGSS
UniProt Q13153, whole entry, looked up: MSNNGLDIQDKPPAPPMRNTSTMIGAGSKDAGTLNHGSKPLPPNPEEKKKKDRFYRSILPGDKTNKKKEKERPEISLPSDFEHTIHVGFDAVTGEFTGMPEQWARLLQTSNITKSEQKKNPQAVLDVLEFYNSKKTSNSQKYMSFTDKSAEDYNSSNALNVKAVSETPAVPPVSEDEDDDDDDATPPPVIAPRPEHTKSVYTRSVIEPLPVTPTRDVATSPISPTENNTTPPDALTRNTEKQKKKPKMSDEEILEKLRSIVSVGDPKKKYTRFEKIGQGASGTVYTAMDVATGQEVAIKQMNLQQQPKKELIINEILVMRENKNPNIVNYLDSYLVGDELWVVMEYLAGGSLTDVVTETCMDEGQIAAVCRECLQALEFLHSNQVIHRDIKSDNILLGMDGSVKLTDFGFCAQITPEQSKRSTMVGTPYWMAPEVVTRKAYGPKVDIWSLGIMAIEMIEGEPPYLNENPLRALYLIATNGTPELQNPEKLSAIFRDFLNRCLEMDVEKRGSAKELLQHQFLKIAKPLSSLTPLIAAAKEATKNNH
UniProt P12004, whole entry, looked up: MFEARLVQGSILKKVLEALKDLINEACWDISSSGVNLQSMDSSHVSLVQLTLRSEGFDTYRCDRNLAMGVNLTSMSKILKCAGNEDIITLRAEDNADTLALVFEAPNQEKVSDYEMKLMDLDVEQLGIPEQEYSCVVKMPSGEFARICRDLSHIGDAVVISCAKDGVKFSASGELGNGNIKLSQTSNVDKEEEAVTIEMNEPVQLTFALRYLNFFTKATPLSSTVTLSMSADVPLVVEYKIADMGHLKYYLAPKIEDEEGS
UniProt O96013: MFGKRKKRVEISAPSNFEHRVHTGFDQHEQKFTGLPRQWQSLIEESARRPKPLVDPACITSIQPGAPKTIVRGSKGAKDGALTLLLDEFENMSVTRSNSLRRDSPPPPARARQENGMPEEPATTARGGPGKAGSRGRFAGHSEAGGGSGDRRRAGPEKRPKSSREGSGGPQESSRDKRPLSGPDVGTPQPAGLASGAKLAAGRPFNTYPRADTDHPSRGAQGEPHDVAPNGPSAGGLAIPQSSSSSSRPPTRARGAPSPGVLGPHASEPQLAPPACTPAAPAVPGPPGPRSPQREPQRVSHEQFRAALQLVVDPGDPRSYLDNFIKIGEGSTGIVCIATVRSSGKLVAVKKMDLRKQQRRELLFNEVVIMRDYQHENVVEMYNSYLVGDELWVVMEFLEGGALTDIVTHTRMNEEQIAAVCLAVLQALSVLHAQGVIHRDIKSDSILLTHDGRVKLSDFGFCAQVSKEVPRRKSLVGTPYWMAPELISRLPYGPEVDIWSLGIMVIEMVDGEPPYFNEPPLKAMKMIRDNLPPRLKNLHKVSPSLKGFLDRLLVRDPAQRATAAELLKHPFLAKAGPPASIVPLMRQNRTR

Tests used:
Test in all cases: log2 fold change, soluble protein after heating vs DMSO (PISA); higher = thermal stabilisation; K562 cells, 10 uM, 30 min; active = over 0.2 and 3.5 SD of the protein, either way, in both replicates (recomputed)
[1] = compound: C1COCCN1CCN2C3=CC=CC=C3N=C2NC(=O)C4=CC(=CC=C4)[N+](=O)[O-] [IRAK-1-4 Inhibitor I]
Summary of the method: (§1)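 K562 cells at 2×10^6 cells/mL were treated for 30 min with 10 μM compound, and aliquots were heated for 3 min over 48°C-58°C before pooling. Extraction used PBS with 0.5% NP-40 at 4°C, and soluble protein was the supernatant after 21,000xg for 90 min, measured by TMTpro 16plex LC-MS/MS with channel sums equalised. Thermal stability values, relative to control samples and from duplicates, are log2 fold changes.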

[2] = compound: C=CC(=O)N1CCC[C@@H](n2nc(-c3ccc(Oc4ccccc4)cc3)c3c(N)ncnc32)C1 [ibrutinib]
Summary of the method: as §1

[3] = compound: CC(=O)c1cnc2ccc(-c3cc(Cl)c(O)c(Cl)c3)nc2c1N[C@H]1CC[C@H](CN(C)C)CC1
Summary of the method: as §1

[4] = compound: CC(C)(C)Cn1c(N)nc2ccc(-c3[nH]c(C(C)(C)C)nc3-c3ccc(F)cc3)nc21 [ralimetinib]
Summary of the method: as §1

[5] = compound: CC(C)(O)CC(=O)NCCn1ccc2ncnc(Nc3ccc(Oc4cccc(C(F)(F)F)c4)c(Cl)c3)c21
Summary of the method: as §1

[6] = compound: CC(C)C1=C2N=C(C=C(N2N=C1)NCC3=CC=CC=C3)NCCCCCCN
Summary of the method: as §1

[7] = compound: CC(C)C[C@@H](C=O)NC(=O)[C@H](CC(C)C)NC(=O)[C@H](CC(C)C)NC(=O)OCc1ccccc1
Summary of the method: as §1

[8] = compound: CC(C)N(C[C@H]1O[C@@H](n2cnc3c(N)ncnc32)[C@H](O)[C@@H]1O)[C@H]1C[C@@H](CCc2nc3cc(C(C)(C)C)ccc3[nH]2)C1 [pinometostat]
Summary of the method: as §1

[9] = compound: CC1=C(C(CC(=O)N1)C2=CC=C(C=C2)C(F)(F)F)C(=O)NC3=C(C=C4C(=C3)C=NN4)F
Summary of the method: as §1

[10] = compound: CC1=C(C2=C(C=C1)C(=O)C3=CC=CC=C3N2CCCN)C
Summary of the method: as §1

[11] = compound: CC1=C(C=C(C=C1)NC(=O)C2=CC(=CC=C2)C(C)(C)C#N)NC3=CC4=C(C=C3)N=CN(C4=O)C
Summary of the method: as §1

[12] = compound: CC1=C(C=C(C=C1)NC(=O)C2=CC(=CC=C2)N(C)C)NC(=O)C3=CC=C(C=C3)O
Summary of the method: as §1

[13] = compound: CC1=CC=C(C=C1)SC2=C3C=C(SC3=CN=C2)C(=O)N
Summary of the method: as §1

[14] = compound: CC1=NC(=CC=C1)C2=C(N=C(N2)C(C)(C)C)C3=CC4=NC=CN=C4C=C3
Summary of the method: as §1

[15] = compound: CCCCN(Cc1ccc(C(=O)NO)cc1)C(=O)Nc1ccccc1 [Nexturastat A]
Summary of the method: as §1

[16] = compound: CCCS(=O)(=O)Nc1ccc(F)c(C(=O)c2c[nH]c3ncc(-c4ccc(Cl)cc4)cc23)c1F [vemurafenib]
Summary of the method: as §1

[17] = compound: CCCS(=O)(=O)Nc1ccc(F)c(C(=O)c2c[nH]c3ncc(Cl)cc23)c1F
Summary of the method: as §1

[18] = compound: CCCc1cc(C)[nH]c(=O)c1CNC(=O)c1cc(-c2ccnc(N3CCN(C)CC3)c2)cc2c1cnn2C(C)C
Summary of the method: as §1

[19] = compound: CCN(CC)Cc1ccc2cc(COC(=O)Nc3ccc(C(=O)NO)cc3)ccc2c1 [givinostat]
Summary of the method: as §1

[20] = compound: CCN(CCCOc1ccc2c(Nc3cc(CC(=O)Nc4cccc(F)c4)[nH]n3)ncnc2c1)CCOP(=O)(O)O [barasertib]
Summary of the method: as §1

Target	log2 fold change [1]	log2 fold change [2]	log2 fold change [3]	log2 fold change [4]	log2 fold change [5]	log2 fold change [6]	log2 fold change [7]	log2 fold change [8]	log2 fold change [9]	log2 fold change [10]	log2 fold change [11]	log2 fold change [12]	log2 fold change [13]	log2 fold change [14]	log2 fold change [15]	log2 fold change [16]	log2 fold change [17]	log2 fold change [18]	log2 fold change [19]	log2 fold change [20]
PAIP1 (UniProt Q9H074)	inactive: -0.008	inactive: 0.018	inactive: 0.013	inactive: -0.039	inactive: -0.008	inactive: -0.041	inactive: 0.018	inactive: -0.019	inactive: -0.036	inactive: -0.065	inactive: -0.019	inactive: 0.022	inactive: -0.011	inactive: 0.013	inactive: -0.065	inactive: 0.004	inactive: 0.032	inactive: -0.016	inactive: -0.056	inactive: -0.002
PDIA5 (UniProt Q14554)	inactive: -0.038	inactive: -0.003	inactive: 0.059	inactive: 0.045	inactive: 0.039	inactive: -0.017	inactive: 0.004	inactive: 0.043	inactive: 0.008	inactive: 0.001	inactive: 0.029	inactive: -0.013	inactive: -0.041	inactive: -0.01	inactive: 0.135	inactive: -0.022	inactive: -0.042	inactive: 0.012	inactive: -0.002	inactive: -0.033
PBX2 (UniProt P40425)	inactive: -0.078	inactive: 0.023	inactive: -0.122	inactive: 0.04	inactive: -0.145	inactive: -0.184	inactive: 0.078	inactive: -0.058	–	inactive: -0.005	inactive: 0.049	inactive: 0.001	inactive: 0.089	inactive: 0.165	inactive: 0.072	inactive: 0.099	inactive: 0.136	inactive: 0.026	inactive: 0.138	inactive: 0.03
PATL1 (UniProt Q86TB9)	inactive: -0.026	inactive: -0.173	inactive: -0.312	inactive: 0.079	inactive: -0.024	inactive: -0.298	inactive: 0.033	inactive: 0.143	–	inactive: 0.038	inactive: 0.038	inactive: 0.031	inactive: -0.025	inactive: -0.064	inactive: 0.123	inactive: -0.118	inactive: 0.005	inactive: 0.1	inactive: 0.039	inactive: 0.014
PCYOX1 (UniProt Q9UHG3)	inactive: -0.017	inactive: 0.066	inactive: -0.019	inactive: -0.044	inactive: -0.002	inactive: 0.123	inactive: -0.041	inactive: -0.044	inactive: 0.015	inactive: 0.003	inactive: 0.053	inactive: 0.015	inactive: 0.042	inactive: 0.034	inactive: -0.075	inactive: -0.014	inactive: 0.018	inactive: -0.018	inactive: 0.056	inactive: -0.028
PCIF1 (UniProt Q9H4Z3)	inactive: 0.013	inactive: -0.077	inactive: -0.192	inactive: 0.066	inactive: -0.025	inactive: -0.032	inactive: 0.049	inactive: -0.102	inactive: -0.086	inactive: 0.019	inactive: -0.177	inactive: -0.257	–	inactive: 0.126	inactive: -0.413	inactive: 0.1	–	inactive: 0.123	inactive: -0.061	inactive: 0.001
PEX12 (UniProt O00623)	inactive: 0.049	inactive: 0.112	inactive: 0.037	inactive: 0.056	inactive: 0.056	inactive: -0.028	inactive: 0.123	inactive: 0.026	inactive: -0.054	inactive: -0.047	inactive: -0.001	inactive: -0.037	inactive: 0.012	inactive: 0.117	inactive: -0.07	inactive: -0.066	inactive: -0.031	inactive: -0.034	inactive: 0.02	inactive: 0.009
PDCD6 (UniProt O75340)	inactive: 0.021	inactive: -0.05	inactive: -0.029	inactive: -0.048	inactive: -0.097	inactive: -0.156	inactive: 0.018	inactive: 0.005	–	inactive: -0.034	inactive: 0.013	inactive: 0.039	inactive: -0.001	inactive: 0.032	inactive: -0.032	inactive: -0.025	inactive: 0.023	inactive: -0.089	inactive: -0.017	inactive: 0.004
PARN (UniProt O95453)	inactive: 0.002	inactive: -0.047	inactive: -0.092	inactive: -0.013	inactive: -0.02	inactive: -0.025	inactive: 0.018	inactive: -0.018	–	inactive: 0.033	inactive: -0.038	inactive: -0.004	inactive: 0.004	inactive: 0.013	inactive: -0.069	inactive: 0	inactive: 0.043	inactive: -0.058	inactive: 0.059	inactive: 0.057
PDZD8 (UniProt Q8NEN9)	inactive: 0.013	inactive: -0.037	inactive: -0.03	inactive: -0.011	inactive: -0.039	inactive: -0.077	inactive: 0.006	inactive: -0.017	inactive: -0.011	inactive: 0.03	inactive: 0.032	inactive: -0.012	inactive: -0.042	inactive: 0.04	inactive: -0.012	inactive: 0.002	inactive: -0.03	inactive: -0.112	inactive: 0.011	inactive: 0.013
PCBP2 isoform 3 (UniProt Q15366)	inactive: -0.065	inactive: -0.048	inactive: -0.056	inactive: 0.017	inactive: -0.067	inactive: -0.211	inactive: -0.029	inactive: -0.049	–	inactive: 0.025	inactive: 0.054	inactive: -0.024	inactive: 0.065	inactive: 0.149	inactive: -0.006	inactive: 0.056	inactive: 0.129	inactive: -0.004	inactive: 0.031	inactive: 0.013
PAK1 isoform 2 (UniProt Q13153)	inactive: 0.018	inactive: 0.048	inactive: 0.158	inactive: -0.066	inactive: -0.025	inactive: 0	inactive: -0.046	inactive: -0.038	–	inactive: 0.051	inactive: 0.035	inactive: -0.072	inactive: 0.114	inactive: 0.003	inactive: -0.01	inactive: 0.019	inactive: -0.036	inactive: -0.075	inactive: -0.054	inactive: -0.001
PCNA (UniProt P12004)	inactive: 0.028	inactive: 0.001	inactive: -0.018	inactive: -0.048	inactive: 0.022	inactive: 0.039	inactive: -0.038	inactive: -0.055	inactive: 0.014	inactive: 0.035	inactive: 0.014	inactive: 0.028	inactive: -0.006	inactive: 0.051	inactive: -0.083	inactive: 0.007	inactive: 0.006	inactive: -0.076	inactive: -0.056	inactive: 0.008
PECAM1 (UniProt P16284)	inactive: 0.021	inactive: 0.004	inactive: -0.031	inactive: -0.002	inactive: -0.082	inactive: 0.141	inactive: -0.057	inactive: 0.012	–	active: 0.261	inactive: -0.092	inactive: -0.019	inactive: -0.013	inactive: -0.113	inactive: 0.068	inactive: -0.049	inactive: 0.004	inactive: -0.015	inactive: 0.01	inactive: 0.028
PAK4 (UniProt O96013)	inactive: 0.038	inactive: -0.032	inactive: 0.173	inactive: -0.084	inactive: 0	inactive: 0.015	inactive: 0.07	inactive: 0.016	–	inactive: 0.049	inactive: -0.154	inactive: 0.06	inactive: -0.017	inactive: -0.017	inactive: -0.027	inactive: -0.035	inactive: -0.026	inactive: -0.141	inactive: -0.01	inactive: 0.027

Quoted at random: 2 records from the list, in no set order.
Target	log2 fold change [1]	log2 fold change [2]	log2 fold change [3]	log2 fold change [4]	log2 fold change [5]	log2 fold change [6]	log2 fold change [7]	log2 fold change [8]	log2 fold change [9]	log2 fold change [10]	log2 fold change [11]	log2 fold change [12]	log2 fold change [13]	log2 fold change [14]	log2 fold change [15]	log2 fold change [16]	log2 fold change [17]	log2 fold change [18]	log2 fold change [19]	log2 fold change [20]
PDZD8 (UniProt Q8NEN9)	inactive: 0.013	inactive: -0.037	inactive: -0.03	inactive: -0.011	inactive: -0.039	inactive: -0.077	inactive: 0.006	inactive: -0.017	inactive: -0.011	inactive: 0.03	inactive: 0.032	inactive: -0.012	inactive: -0.042	inactive: 0.04	inactive: -0.012	inactive: 0.002	inactive: -0.03	inactive: -0.112	inactive: 0.011	inactive: 0.013
PAK4 (UniProt O96013)	inactive: 0.038	inactive: -0.032	inactive: 0.173	inactive: -0.084	inactive: 0	inactive: 0.015	inactive: 0.07	inactive: 0.016	–	inactive: 0.049	inactive: -0.154	inactive: 0.06	inactive: -0.017	inactive: -0.017	inactive: -0.027	inactive: -0.035	inactive: -0.026	inactive: -0.141	inactive: -0.01	inactive: 0.027
